{"source": "patent US9775855B2", "about": "“Compositions comprising macrolide and tetracycline and their uses” (priority 2011, dated 2017)", "origin": "cited, not measured here", "system": "AD models", "conditions": "in vivo", "note": "At least one structure is not confirmed: it was looked up by name or label, or the drawing left a doubt."}
{"smiles": "CN(C)c1ccc(O)c2c1C[C@H]1C[C@H]3[C@H](N(C)C)C(O)=C(C(N)=O)C(=O)[C@@]3(O)C(O)=C1C2=O", "note": "[Minocycline]", "values": [{"measurement": "proliferation/activation of resting microglial cells", "value": "reduces"}]}
